This is an account of results in PMC8883701.

Chains of the proteins cited; added tags and fusions are not shown. Chains listed by the source or under a name are the forms on record and can include a tag or linker.
UniProt P09874, whole entry: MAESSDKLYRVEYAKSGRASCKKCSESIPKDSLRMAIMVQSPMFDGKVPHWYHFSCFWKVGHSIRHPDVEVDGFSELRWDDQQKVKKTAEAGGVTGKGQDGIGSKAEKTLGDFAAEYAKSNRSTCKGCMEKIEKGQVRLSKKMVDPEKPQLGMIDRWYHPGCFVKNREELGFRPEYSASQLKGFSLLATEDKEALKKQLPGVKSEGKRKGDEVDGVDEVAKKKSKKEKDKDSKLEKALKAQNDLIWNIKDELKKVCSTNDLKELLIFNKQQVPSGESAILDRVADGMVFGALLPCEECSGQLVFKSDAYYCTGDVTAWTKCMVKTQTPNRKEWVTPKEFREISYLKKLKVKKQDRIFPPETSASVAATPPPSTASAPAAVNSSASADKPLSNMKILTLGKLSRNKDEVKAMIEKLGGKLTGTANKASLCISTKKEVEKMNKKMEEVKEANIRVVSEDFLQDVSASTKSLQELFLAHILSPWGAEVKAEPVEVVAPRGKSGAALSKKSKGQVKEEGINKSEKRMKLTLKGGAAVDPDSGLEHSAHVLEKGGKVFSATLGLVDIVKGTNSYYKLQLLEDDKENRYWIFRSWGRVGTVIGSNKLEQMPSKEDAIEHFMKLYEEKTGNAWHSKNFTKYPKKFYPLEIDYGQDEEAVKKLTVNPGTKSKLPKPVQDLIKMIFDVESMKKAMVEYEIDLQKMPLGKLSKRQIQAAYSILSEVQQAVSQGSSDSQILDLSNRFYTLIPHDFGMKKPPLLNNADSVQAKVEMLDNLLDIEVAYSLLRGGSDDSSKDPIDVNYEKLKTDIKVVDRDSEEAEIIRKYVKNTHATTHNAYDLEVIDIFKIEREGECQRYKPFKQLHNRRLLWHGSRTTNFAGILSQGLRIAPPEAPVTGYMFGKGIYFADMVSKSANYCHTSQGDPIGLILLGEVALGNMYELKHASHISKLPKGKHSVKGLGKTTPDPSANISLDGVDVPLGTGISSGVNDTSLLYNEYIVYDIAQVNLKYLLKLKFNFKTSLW
Rpa endogenous, mouse (mouse (MEF nuclear extract)), one chain, as listed by the source, chain 3 of 3: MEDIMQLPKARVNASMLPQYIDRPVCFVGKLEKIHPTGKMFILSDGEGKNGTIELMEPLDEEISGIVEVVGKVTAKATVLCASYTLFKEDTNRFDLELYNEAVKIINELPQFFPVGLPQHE
RPA (RPA1/RPA2/RPA3) endogenous, human, one chain, as listed by the source, chain 3 of 3: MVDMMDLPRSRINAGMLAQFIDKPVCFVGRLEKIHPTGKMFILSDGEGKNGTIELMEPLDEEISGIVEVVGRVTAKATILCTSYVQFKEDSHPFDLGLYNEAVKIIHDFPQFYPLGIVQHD
Rpa endogenous, mouse (mouse (MEF nuclear extract)), one chain, as listed by the source, chain 1 of 3: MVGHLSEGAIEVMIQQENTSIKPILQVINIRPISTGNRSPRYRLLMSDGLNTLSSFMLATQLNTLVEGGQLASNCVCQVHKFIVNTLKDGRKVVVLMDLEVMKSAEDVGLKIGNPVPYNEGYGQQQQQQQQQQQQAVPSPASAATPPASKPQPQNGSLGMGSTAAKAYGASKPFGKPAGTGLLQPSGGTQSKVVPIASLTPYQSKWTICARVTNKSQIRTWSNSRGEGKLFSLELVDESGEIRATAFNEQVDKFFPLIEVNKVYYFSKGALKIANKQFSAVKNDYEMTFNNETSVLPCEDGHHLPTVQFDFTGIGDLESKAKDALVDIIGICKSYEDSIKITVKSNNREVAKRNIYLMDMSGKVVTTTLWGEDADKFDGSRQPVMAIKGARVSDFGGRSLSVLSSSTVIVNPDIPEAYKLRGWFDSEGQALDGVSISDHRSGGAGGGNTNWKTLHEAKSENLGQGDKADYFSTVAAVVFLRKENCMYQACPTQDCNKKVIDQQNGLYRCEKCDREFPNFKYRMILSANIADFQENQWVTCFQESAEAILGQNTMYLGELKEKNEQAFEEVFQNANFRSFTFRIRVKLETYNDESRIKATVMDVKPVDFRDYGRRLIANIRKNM
RPA (RPA1/RPA2/RPA3) endogenous, human, one chain, as listed by the source, chain 1 of 3: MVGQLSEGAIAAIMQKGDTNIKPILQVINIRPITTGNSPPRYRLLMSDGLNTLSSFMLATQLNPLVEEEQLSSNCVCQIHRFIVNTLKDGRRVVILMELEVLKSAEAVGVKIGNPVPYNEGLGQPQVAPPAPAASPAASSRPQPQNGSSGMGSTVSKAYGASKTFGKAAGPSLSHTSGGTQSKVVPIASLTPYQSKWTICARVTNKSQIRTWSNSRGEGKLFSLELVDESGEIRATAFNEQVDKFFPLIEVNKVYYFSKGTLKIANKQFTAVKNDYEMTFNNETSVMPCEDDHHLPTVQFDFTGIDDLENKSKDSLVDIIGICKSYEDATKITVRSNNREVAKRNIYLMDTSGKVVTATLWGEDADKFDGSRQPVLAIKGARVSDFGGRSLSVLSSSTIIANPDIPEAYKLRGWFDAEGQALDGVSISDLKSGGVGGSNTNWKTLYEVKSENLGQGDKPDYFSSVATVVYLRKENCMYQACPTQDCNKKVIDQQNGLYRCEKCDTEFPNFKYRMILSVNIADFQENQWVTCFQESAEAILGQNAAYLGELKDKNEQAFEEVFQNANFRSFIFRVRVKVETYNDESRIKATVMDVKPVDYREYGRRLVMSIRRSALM
RPA (RPA1/RPA2/RPA3) endogenous, human, one chain, as listed by the source, chain 2 of 3: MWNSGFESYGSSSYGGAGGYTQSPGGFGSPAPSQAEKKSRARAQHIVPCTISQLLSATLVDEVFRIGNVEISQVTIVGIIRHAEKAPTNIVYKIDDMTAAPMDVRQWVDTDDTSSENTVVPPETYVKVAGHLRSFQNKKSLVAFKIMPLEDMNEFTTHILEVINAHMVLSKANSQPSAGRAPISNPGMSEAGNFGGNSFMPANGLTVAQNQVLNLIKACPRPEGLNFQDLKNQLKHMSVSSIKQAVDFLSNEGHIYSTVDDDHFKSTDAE
Rpa endogenous, mouse (mouse (MEF nuclear extract)), one chain, as listed by the source, chain 2 of 3: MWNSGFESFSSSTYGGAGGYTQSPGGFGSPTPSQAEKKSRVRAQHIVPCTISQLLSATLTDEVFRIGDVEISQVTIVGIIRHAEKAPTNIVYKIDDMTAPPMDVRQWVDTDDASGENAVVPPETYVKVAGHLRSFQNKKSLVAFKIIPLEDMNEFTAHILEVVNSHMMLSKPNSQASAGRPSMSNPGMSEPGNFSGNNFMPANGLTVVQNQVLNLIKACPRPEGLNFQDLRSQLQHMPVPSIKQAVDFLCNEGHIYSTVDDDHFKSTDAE

What all share (experiment): pull-down
In data set [1] the test system is Rpa endogenous, mouse (mouse (MEF nuclear extract)). The following applies: biotin-ssDNA (one third of 30 pmol) on streptavidin Sepharose, nuclear extract in NETN buffer, 4 °C 8 h or room temperature 1 h, composition not given, protein in an extract, label: 5' biotin, single-stranded DNA.
Data set [2] has as its system RPA (RPA1/RPA2/RPA3) endogenous, human. The following applies: biotin-ssDNA (one third of 30 pmol) on streptavidin Sepharose, nuclear extract in NETN buffer, 4 °C 8 h or room temperature 1 h, composition not given, protein in an extract, label: 5' biotin, single-stranded DNA.
The next data set concerns the target PARP1 (UniProt P09874). The following applies: nuclear extract, rucaparib 10 uM enhances; biotin-ssDNA (one third of 30 pmol) on streptavidin Sepharose, nuclear extract in NETN buffer, 4 °C 8 h or room temperature 1 h; composition not given; protein in an extract; label: 5' biotin; single-stranded DNA.
A further data set concerns the target T1, LAP2α endogenous (UniProt P42166).
T1 sequence (looked up, limits assumed): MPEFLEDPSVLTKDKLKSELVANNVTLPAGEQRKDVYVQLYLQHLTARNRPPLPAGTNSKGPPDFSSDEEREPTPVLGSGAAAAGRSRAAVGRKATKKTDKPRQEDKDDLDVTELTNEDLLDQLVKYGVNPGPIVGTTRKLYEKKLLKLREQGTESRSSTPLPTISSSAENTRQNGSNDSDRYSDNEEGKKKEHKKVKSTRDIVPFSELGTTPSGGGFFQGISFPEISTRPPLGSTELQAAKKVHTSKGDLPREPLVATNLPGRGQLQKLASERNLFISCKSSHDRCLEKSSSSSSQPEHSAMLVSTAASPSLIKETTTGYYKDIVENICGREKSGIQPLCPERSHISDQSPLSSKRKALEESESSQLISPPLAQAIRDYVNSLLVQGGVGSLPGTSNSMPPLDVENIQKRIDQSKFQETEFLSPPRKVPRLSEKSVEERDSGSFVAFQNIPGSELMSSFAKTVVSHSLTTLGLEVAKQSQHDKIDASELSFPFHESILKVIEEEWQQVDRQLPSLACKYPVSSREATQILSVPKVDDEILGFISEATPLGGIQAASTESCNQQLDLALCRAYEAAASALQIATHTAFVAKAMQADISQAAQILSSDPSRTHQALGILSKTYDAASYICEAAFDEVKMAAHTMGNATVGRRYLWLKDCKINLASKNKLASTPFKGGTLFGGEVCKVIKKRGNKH
The following applies: nuclear extract, rucaparib enhances; biotin-ssDNA (one third of 30 pmol) on streptavidin Sepharose, nuclear extract in NETN buffer, 4 °C 8 h or room temperature 1 h; composition not given; protein in an extract; label: 5' biotin; single-stranded DNA.

Another data set addresses T2, LAP2α/wt re-expressed (UniProt P42166).
T2 sequence (looked up, limits assumed): T1 sequence (looked up, limits assumed)
The following applies: with RPA in nuclear extract; biotin-ssDNA (one third of 30 pmol) on streptavidin Sepharose, nuclear extract in NETN buffer, 4 °C 8 h or room temperature 1 h; composition not given; protein in an extract; label: 5' biotin; single-stranded DNA.

Another data set has as its target T3, LAP2α/2RE R86E,R88E (UniProt P42166).
T3 sequence (looked up, limits assumed): T1 sequence (looked up, limits assumed) with R86E, R88E
The following applies: with RPA in nuclear extract; biotin-ssDNA (one third of 30 pmol) on streptavidin Sepharose, nuclear extract in NETN buffer, 4 °C 8 h or room temperature 1 h; composition not given; protein in an extract; label: 5' biotin; single-stranded DNA.

Changes are numbered by the printed parent chain. Construct, isoform or probe ends are uncertain for at least one entry. Where cells or extracts were used, other partners may take part. For part of these data: A weaker result is weaker than the reference pair of the same experiment. For part of these data: At least one verdict rests on a figure or table, not on a statement of the authors. For part of these data: Protein sequences can lack the tags named with them.

As for “TGCAGCTGGCACGACAGGTTTTAATGAATCGGCCAACGCGCGGGGAGAGGCGGTTTGCGTATTGGGCGCT [70-nt ssDNA]”, the binding result in data set [1] (Lap2α+/+ MEF extract) is recorded as “binds”; in data set [1] (Lap2α-/- MEF extract) it was “binds more weakly”; in data set [2] (LAP2α knockdown + rucaparib), “binds more weakly”; in data set [2] (LAP2α knockdown) it was “binds more weakly”; in data set [2] (LAP2α present, nuclear extract) it was “binds”; in data set [2] (LAP2α-depleted + LAP2α/2RE, not restored), “binds more weakly”. In addition, the binding result in data set [2] (LAP2α-depleted + LAP2α/wt, binding restored) was “binds”; in data set [2] (rucaparib 10 uM 4 h, enhanced loading), “binds”; in the data set with PARP1 it was “binds”; in the data set with LAP2α endogenous, “binds”; in the data set with LAP2α/wt re-expressed, “binds”; with LAP2α/2RE R86E,R88E, “binds”.
